Our source for the log2 fold change values is the supplement of paper PMC10849652.

Sequences of proteins named here, by UniProt entry; tags and fusion partners are left off. A change or cut given only in a name is not applied to a line headed by its entry.
UniProt Q8N7Z5: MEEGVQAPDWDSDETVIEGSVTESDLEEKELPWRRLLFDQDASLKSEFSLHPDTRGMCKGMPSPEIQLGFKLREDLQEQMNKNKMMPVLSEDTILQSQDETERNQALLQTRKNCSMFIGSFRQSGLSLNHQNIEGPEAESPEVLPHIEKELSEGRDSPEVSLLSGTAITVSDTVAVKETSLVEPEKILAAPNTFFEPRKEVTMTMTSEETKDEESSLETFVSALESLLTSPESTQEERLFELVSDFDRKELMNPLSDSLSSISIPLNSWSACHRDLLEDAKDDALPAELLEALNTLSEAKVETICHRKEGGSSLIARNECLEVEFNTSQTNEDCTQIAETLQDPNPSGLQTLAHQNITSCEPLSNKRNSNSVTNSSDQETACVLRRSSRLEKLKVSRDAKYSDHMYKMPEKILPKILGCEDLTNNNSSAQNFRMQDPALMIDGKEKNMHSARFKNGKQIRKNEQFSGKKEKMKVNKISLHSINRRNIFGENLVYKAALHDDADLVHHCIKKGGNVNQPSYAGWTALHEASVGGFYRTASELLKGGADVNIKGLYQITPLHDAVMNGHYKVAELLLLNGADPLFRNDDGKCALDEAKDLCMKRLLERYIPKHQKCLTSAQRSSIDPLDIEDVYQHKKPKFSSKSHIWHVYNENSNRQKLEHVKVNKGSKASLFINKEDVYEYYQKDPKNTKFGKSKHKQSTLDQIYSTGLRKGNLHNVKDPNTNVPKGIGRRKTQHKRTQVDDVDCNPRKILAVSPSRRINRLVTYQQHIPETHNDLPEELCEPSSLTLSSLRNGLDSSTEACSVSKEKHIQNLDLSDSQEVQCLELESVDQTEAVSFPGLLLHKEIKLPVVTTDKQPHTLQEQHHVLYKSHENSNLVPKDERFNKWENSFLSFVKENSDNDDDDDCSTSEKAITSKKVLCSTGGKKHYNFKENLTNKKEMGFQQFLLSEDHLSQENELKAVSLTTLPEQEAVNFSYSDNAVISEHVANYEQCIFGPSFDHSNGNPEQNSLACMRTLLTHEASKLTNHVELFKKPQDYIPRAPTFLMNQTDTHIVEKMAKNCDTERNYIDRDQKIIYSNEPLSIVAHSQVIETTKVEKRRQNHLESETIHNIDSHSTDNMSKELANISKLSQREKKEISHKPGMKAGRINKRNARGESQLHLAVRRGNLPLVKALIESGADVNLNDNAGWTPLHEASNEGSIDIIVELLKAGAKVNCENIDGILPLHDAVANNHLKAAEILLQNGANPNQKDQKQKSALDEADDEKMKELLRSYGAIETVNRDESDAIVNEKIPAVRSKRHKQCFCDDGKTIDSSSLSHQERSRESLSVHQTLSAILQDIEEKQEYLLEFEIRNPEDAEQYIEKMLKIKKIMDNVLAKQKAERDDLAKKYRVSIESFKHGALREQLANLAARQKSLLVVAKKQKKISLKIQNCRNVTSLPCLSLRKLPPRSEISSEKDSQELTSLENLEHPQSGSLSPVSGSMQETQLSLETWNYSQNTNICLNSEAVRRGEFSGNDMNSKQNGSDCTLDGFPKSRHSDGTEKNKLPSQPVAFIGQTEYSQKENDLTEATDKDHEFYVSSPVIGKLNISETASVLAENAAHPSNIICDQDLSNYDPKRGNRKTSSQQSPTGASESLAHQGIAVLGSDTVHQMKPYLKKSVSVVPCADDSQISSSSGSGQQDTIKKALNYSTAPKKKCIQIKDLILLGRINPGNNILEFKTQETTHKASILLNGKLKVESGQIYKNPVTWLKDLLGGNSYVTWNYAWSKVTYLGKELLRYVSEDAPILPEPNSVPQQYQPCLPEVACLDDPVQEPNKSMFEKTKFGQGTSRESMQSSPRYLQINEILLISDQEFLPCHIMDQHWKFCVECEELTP
UniProt Q8N6D5: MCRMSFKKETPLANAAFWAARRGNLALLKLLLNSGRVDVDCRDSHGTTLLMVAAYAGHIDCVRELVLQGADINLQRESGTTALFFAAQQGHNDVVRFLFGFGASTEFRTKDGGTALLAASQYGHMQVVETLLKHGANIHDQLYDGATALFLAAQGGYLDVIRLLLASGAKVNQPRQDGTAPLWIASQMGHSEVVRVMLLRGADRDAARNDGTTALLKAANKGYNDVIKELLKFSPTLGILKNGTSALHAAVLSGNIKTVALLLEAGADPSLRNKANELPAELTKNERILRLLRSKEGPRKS
UniProt Q9BXX3: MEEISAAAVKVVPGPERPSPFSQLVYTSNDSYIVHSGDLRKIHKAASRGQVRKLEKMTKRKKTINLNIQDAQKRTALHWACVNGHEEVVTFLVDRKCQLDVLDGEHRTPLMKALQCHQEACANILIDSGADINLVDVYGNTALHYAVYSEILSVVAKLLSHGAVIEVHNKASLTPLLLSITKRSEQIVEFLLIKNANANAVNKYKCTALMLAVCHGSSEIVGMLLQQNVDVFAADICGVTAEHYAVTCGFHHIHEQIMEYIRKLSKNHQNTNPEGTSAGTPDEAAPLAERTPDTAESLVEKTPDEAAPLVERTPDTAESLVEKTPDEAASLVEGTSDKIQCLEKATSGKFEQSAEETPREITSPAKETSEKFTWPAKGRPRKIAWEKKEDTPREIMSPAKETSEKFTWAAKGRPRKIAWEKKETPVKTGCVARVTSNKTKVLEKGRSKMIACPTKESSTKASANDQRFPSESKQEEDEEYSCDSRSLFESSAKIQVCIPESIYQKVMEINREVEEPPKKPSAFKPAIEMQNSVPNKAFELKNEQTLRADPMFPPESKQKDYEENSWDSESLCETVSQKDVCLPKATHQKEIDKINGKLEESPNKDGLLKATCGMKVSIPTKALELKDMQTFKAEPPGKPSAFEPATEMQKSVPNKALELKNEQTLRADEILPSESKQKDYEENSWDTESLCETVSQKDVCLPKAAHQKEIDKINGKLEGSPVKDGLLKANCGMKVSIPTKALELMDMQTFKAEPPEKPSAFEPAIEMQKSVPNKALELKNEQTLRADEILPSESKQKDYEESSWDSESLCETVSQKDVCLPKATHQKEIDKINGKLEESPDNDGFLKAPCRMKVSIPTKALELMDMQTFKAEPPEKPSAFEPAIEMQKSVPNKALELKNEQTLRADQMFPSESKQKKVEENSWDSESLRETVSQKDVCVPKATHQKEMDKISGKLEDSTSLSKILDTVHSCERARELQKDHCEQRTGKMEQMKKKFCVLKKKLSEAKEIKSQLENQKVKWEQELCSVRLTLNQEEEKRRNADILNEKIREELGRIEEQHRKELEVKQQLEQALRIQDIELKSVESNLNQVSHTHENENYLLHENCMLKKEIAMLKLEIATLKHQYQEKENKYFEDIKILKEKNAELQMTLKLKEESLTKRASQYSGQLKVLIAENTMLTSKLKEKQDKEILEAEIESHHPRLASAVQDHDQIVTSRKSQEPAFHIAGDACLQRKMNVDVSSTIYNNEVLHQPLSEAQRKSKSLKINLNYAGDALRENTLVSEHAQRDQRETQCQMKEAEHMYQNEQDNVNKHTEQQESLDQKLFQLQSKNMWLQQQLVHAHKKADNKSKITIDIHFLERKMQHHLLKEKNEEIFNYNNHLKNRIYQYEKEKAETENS
UniProt Q8N8A2: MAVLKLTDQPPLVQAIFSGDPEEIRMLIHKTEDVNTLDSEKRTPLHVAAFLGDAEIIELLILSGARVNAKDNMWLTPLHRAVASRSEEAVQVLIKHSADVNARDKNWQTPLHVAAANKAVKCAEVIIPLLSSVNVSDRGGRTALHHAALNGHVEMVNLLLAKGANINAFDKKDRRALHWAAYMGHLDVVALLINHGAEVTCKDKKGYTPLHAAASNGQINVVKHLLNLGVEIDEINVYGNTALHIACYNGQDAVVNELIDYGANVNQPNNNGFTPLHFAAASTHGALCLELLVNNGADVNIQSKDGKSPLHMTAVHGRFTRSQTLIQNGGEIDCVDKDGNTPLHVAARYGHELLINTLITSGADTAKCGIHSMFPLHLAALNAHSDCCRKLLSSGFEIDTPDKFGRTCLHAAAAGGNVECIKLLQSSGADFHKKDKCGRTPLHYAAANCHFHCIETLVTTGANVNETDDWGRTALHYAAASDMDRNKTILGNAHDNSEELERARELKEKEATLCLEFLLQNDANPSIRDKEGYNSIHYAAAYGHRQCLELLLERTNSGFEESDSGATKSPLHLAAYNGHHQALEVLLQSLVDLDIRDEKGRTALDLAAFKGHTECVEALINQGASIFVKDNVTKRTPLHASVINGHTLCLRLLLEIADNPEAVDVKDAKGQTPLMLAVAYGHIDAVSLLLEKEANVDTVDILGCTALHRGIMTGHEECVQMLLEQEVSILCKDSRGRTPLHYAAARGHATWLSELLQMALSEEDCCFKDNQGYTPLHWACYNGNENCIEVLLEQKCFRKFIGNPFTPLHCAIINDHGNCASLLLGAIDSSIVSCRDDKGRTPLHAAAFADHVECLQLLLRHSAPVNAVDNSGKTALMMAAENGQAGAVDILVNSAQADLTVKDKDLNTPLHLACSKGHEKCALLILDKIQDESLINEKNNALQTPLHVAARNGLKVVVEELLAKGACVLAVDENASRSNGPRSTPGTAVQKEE
UniProt Q6P6B7: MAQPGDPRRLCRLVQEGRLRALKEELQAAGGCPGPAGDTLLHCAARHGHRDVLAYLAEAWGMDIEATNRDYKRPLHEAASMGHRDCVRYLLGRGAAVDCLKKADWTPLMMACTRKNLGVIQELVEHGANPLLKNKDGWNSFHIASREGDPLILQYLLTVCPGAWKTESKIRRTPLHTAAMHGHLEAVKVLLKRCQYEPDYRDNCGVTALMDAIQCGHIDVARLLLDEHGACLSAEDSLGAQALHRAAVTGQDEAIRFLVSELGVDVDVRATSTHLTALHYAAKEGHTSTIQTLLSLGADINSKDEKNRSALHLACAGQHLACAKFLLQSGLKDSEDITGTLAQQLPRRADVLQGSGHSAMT
UniProt Q6ZW76: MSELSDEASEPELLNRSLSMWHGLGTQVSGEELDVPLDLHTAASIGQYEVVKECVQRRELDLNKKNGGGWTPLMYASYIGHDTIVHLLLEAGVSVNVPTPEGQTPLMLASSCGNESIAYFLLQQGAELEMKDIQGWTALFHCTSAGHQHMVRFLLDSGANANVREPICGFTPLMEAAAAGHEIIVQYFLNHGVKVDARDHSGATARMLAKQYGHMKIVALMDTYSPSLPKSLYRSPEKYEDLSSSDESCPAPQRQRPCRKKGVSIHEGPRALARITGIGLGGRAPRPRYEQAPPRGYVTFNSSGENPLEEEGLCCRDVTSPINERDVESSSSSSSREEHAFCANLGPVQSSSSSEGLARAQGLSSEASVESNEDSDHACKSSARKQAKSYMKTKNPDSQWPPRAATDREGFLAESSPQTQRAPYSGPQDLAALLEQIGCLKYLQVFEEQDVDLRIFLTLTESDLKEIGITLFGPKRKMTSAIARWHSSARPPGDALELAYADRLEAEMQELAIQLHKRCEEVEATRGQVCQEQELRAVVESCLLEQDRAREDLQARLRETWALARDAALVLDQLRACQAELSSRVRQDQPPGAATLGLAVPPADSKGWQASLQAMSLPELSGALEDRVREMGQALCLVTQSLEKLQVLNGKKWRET
UniProt Q9BV10: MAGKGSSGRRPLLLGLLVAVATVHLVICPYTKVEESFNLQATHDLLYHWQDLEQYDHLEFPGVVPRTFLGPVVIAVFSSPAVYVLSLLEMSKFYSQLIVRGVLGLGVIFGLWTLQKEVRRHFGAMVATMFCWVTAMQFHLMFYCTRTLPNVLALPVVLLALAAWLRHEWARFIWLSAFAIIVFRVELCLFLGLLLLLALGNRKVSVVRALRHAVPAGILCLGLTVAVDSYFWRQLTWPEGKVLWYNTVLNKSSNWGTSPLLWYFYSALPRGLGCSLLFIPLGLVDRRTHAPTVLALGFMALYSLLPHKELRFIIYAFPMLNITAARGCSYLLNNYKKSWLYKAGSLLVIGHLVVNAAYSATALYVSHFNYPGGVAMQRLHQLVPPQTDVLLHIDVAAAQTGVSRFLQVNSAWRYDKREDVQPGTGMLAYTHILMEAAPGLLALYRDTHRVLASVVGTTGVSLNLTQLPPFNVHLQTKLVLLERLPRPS
UniProt Q92685: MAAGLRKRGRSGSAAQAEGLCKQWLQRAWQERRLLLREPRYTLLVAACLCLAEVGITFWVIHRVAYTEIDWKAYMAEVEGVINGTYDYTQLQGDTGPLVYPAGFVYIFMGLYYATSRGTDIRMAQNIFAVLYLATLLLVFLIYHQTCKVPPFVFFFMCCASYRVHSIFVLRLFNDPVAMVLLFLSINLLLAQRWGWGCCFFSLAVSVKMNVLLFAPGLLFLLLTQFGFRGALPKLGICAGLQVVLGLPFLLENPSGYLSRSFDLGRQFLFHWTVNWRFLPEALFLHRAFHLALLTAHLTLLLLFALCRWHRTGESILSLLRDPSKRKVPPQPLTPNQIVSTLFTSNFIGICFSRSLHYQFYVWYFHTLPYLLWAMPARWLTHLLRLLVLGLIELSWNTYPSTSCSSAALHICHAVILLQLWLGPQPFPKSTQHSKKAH
UniProt Q9NYG5, whole entry, looked up: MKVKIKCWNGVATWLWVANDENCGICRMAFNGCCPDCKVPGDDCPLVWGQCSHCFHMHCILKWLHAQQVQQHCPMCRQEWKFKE

The other results are listed elsewhere or left out.

Compound in one assay: CCCS(=O)(=O)Nc1ccc(F)c(C(=O)c2c[nH]c3ncc(Cl)cc23)c1F
As to the kind of experiment: log2 fold change, soluble protein after heating vs DMSO (PISA); higher = thermal stabilisation; K562 lysate, 10 uM; active = over 0.2 and 3.5 SD of the protein, either way, in both replicates (recomputed). The essentials: (§1)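 K562 pellets were dounce-homogenised in PBS pH 7.4 with 1 mM MgCl2, and the crude extract at 1 mg/mL protein was treated with 10 μM compound for 30 min. Aliquots were heated for 3 min across 48°C-58°C, pooled, and brought to 0.5% NP-40 at 4°C; soluble protein was the supernatant after 21,000xg for 90 min. Soluble protein was quantified by TMTpro 16plex LC-MS/MS with channel sums equalised, and reported as log2 fold change in thermal stability against DMSO controls, with values from duplicates.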
As for ALAS1 (UniProt P13196), the log2 fold change is inactive: 0.072.

Turning to AMBRA1 isoform 5 (UniProt Q9C0C7), the log2 fold change is inactive: -0.041.

Turning to ANKRD31 (UniProt Q8N7Z5), the log2 fold change is inactive: 0.025.

For ANKRD29 (UniProt Q8N6D5), the log2 fold change was inactive: 0.024.

Take ANKRD30A (UniProt Q9BXX3): the log2 fold change was inactive: 0.111.

Consider ANAPC16 (UniProt Q96DE5), for which the log2 fold change is inactive: 0.006.

For the target ANKRD44 isoform 2 (UniProt Q8N8A2), the log2 fold change is inactive: 0.019.

With ANXA6 (UniProt E5RK69), the log2 fold change is inactive: -0.092.

Take ANGPTL4 (UniProt M0R3A2): the log2 fold change was inactive: -0.368.

With AKTIP isoform 2 (UniProt Q9H8T0), the log2 fold change was inactive: -0.075.

On to AP2S1 (UniProt M0QZ21), for which the log2 fold change was inactive: 0.067.

For ANKHD1 (UniProt D6RHC4), the log2 fold change is inactive: -0.113.

In the case of ANKRD50 (UniProt Q9ULJ7), the log2 fold change was inactive: -0.009.

ANKH (UniProt Q9HCJ1): the log2 fold change is inactive: -0.089.

On to ANKRD16 (UniProt Q6P6B7), for which the log2 fold change is inactive: -0.009.

With AP3M2 (UniProt P53677), the log2 fold change is inactive: 0.051.

Turning to ANKS3 (UniProt Q6ZW76), the log2 fold change is inactive: -0.063.

On to ALG12 (UniProt Q9BV10), for which the log2 fold change is inactive: 0.03.

As for AP3D1 isoform 2 (UniProt O14617), the log2 fold change is inactive: -0.085.

With ALDH3A1 (UniProt P30838), the log2 fold change is inactive: 0.014.

Regarding ALDOA (UniProt H3BPS8), the log2 fold change was inactive: -0.135.

Turning to ALG3 (UniProt Q92685), the log2 fold change was inactive: -0.011.

Compound in the next assay: CCN(CCCOc1ccc2c(Nc3cc(CC(=O)Nc4cccc(F)c4)[nH]n3)ncnc2c1)CCOP(=O)(O)O [barasertib]
The description is as above. The essentials:
as §1
With ALAS1 (UniProt P13196), the log2 fold change is inactive: -0.47.

With ANKRD31 (UniProt Q8N7Z5), the log2 fold change was inactive: 0.076.

As for ALG11 (UniProt Q2TAA5), the log2 fold change was inactive: 0.188.

ANKRD29 (UniProt Q8N6D5): the log2 fold change is inactive: 0.158.

For the target ANKRD13C (UniProt Q8N6S4), the log2 fold change was inactive: 0.078.

ANKRD30A (UniProt Q9BXX3): the log2 fold change is inactive: 0.087.

As to ANKRD40 (UniProt Q6AI12), the log2 fold change is inactive: -0.091.

In the case of ANKRD44 isoform 2 (UniProt Q8N8A2), the log2 fold change is inactive: 0.058.

With ANGPTL4 (UniProt M0R3A2), the log2 fold change is inactive: 0.053.

For AP2S1 (UniProt M0QZ21), the log2 fold change is inactive: -0.038.

As to ANKHD1 isoform 2 (UniProt Q8IWZ3), the log2 fold change was inactive: -0.012.

For AP4M1 (UniProt O00189), the log2 fold change was inactive: 0.052.

Consider AMOTL1 (UniProt Q8IY63), for which the log2 fold change is inactive: 0.02.

For ALDH9A1 (UniProt P49189), the log2 fold change was inactive: -0.109.

As to ANAPC11 (UniProt Q9NYG5), the log2 fold change was inactive: 0.053.

In the case of ANKLE2 (UniProt Q86XL3), the log2 fold change was inactive: 0.059.

As for ANKRD16 (UniProt Q6P6B7), the log2 fold change is inactive: -0.038.

In the case of AP3M2 (UniProt P53677), the log2 fold change was inactive: -0.017.

As to ANKS3 (UniProt Q6ZW76), the log2 fold change was inactive: 0.196.

On to ALOX12B (UniProt O75342), for which the log2 fold change is inactive: 0.109.

On to ANP32E isoform 3 (UniProt Q9BTT0), for which the log2 fold change is inactive: -0.086.

As for AP1B1 isoform 3 (UniProt Q10567), the log2 fold change is inactive: -0.069.

On to ALG12 (UniProt Q9BV10), for which the log2 fold change was inactive: -0.034.

ALDOA (UniProt H3BPS8): the log2 fold change is inactive: 0.086.

Consider ALG3 (UniProt Q92685), for which the log2 fold change was inactive: 0.031.

Regarding ANK2 (UniProt Q01484), the log2 fold change is inactive: 0.184.

Compound in another assay: CC[C@@H]1C(=O)N(C)c2cnc(Nc3ccc(C(=O)NC4CCN(C)CC4)cc3OC)nc2N1C1CCCC1
Described as above. The essentials: as §1
With ALAS1 (UniProt P13196), the log2 fold change is inactive: 0.128.

As to AMBRA1 isoform 5 (UniProt Q9C0C7), the log2 fold change was inactive: 0.019.

Consider ANKRD31 (UniProt Q8N7Z5), for which the log2 fold change is inactive: -0.024.

For the target ANKRD29 (UniProt Q8N6D5), the log2 fold change is inactive: 0.189.

Take ANKRD30A (UniProt Q9BXX3): the log2 fold change was inactive: -0.102.

Take ANKRD40 (UniProt Q6AI12): the log2 fold change was inactive: -0.118.

Turning to ANAPC16 (UniProt Q96DE5), the log2 fold change was inactive: 0.216.

Take ANKRD44 isoform 2 (UniProt Q8N8A2): the log2 fold change is inactive: -0.308.

For ANXA6 (UniProt E5RK69), the log2 fold change is inactive: -0.061.

Consider ANGPTL4 (UniProt M0R3A2), for which the log2 fold change is inactive: 0.039.

As for AKTIP isoform 2 (UniProt Q9H8T0), the log2 fold change is inactive: -0.037.

Take ANKHD1 isoform 2 (UniProt Q8IWZ3): the log2 fold change was inactive: -0.013.

Take ANKRD50 (UniProt Q9ULJ7): the log2 fold change was inactive: 0.075.

With AP4M1 (UniProt O00189), the log2 fold change is inactive: 0.23.

With AMOTL1 (UniProt Q8IY63), the log2 fold change is inactive: -0.034.

Turning to ANKH (UniProt Q9HCJ1), the log2 fold change was inactive: 0.069.

Regarding ANKLE2 (UniProt Q86XL3), the log2 fold change is inactive: 0.022.

Turning to ANKRD16 (UniProt Q6P6B7), the log2 fold change is inactive: -0.041.

AP3M2 (UniProt P53677): the log2 fold change was inactive: -0.255.

With ANKS3 (UniProt Q6ZW76), the log2 fold change was inactive: 0.166.

As for ANP32E isoform 3 (UniProt Q9BTT0), the log2 fold change was inactive: -0.026.

Consider ALG12 (UniProt Q9BV10), for which the log2 fold change was inactive: 0.024.

On to ALDOA (UniProt H3BPS8), for which the log2 fold change was inactive: 0.048.

ALG3 (UniProt Q92685): the log2 fold change was inactive: 0.012.
